From paper PMC7744417
Results are given in words; binding and its absence hold for the method and conditions named. In cells and extracts the contact can be indirect. Some entries that bind do so weakly or less than the wild type. Sequences can lack the tags named with a protein. One block for each binder: values may come before it.

How the values were obtained:
[1] = biological target: T1, Flag-FHA (FHA domain containing protein SiRe_1010), co-expressed in E. coli (Sulfolobus islandicus) (UniProt F0NGR1); test: pull-down; FHA and vWA co-expressed in E. coli; supernatant of heat-treated cell extract on anti-Flag beads in buffer A (50 mM Tris-HCl pH 7.5, 150 mM NaCl, 5% glycerol), 25°C, 1 h; eluted with 0.1 M Gly-HCl; Western blot with anti-His antibody
T1 sequence: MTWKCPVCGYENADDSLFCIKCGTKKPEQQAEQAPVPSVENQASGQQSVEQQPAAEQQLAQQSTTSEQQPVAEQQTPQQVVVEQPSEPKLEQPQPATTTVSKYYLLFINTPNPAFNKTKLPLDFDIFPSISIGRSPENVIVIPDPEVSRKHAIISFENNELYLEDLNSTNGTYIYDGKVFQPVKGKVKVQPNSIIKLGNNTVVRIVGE

[2] = biological target: T2, His-FHA (FHA domain containing protein SiRe_1010), co-expressed in S. islandicus (Sulfolobus islandicus) (UniProt F0NGR1); test: pull-down; His-FHA and Flag-vWA co-expressed in S. islandicus; cell extract on Ni-NTA agarose, eluted with lysis buffer with 250 mM imidazole; Western blot with anti-Flag antibody
T2 sequence: T1 sequence

binding [1]: binds
B1: His-vWA1 (von Willebrand type A domain protein SiRe_1008), co-expressed in E. coli (protein, UniProt F0NGQ9 1-380)
chain: MTLSLRVDTSHKYSFSGDVRYIFKVLLVPEKLGSATGFHYIVALDTSGSMTGYKIELAKQGAIELFKRIPKGNKVSFITFSSNVTVIKEFVDPLDLTNEILQIAAGGQTALYTAILTANSLAKKYQMPTYLLLLTDGNPTDETNVGNYLKLPYFEKMQVYSFGIGDDYNEQLLQSISDKTSGVMYHISDANEIPQKLPQKAVTQIAAKNVTVDIAAEGNVKLLNYATTPVKVNGIENVIKIFGETILPANYEGSFLTVKVNYEDPVTNKLESLLQVVQVKRAQDQNTFVSGINNDVINEYRYYELLDKYAKQVQAEQLIEATKTLNQLNEIAQQTRRIDFMETTRRLSEGLETTKRIGTVEQTKRLSKEVTSEVTRKLRE

binding [1]: binds
B3: His-vWA2 (von Willebrand type A domain protein SiRe_1011), co-expressed in E. coli (protein, UniProt F0NGR2 1-356)
chain: MTIAINLKQSHTYAYSDRPTEVGFVIYITPQQSSVTSSIHYIIMIDNSPSMRGEKLNTAVQSAQKLLYNLNEGNYVTLILFSNHPEIKYQGPAKGIITFDVGKGYTTRLHEAVSFTINLAKQSQVPTKIIMLTDGKPTDKRNVKDYEKLDIPPNTQIITIGIGNDYNERILKKLADRSSGKFYHIKDISELPNIFESQRTTSTYAHNLNLIVPQGFMPFNYDLPIRIPIVEKLIAVYGSFVIPAGKEPYTITFSADYIDPIDNQRKTVTKSVILQRGNPQFVESHADRDVILEIRYYRLLREYSEALEAGKDATKVLNELKRVAEETRRPELIEETKKLSNDSKSDLSEITRKMRQ

Further lines, the binder ahead of its results:

B2: Flag-vWA1 (von Willebrand type A domain protein SiRe_1008), co-expressed in S. islandicus (protein, UniProt F0NGQ9 1-380)
chain: B1 chain
binding [2]: binds

B4: Flag-vWA2 (von Willebrand type A domain protein SiRe_1011), co-expressed in S. islandicus (protein, UniProt F0NGR2 1-356)
chain: B3 chain
binding [2]: binds
